Laboratory results: article PMC11079228
No constants are given. Whether binding was seen depends on the method and setting. Binding seen in cells or lysates may run through a third protein. Some binding calls cover weakened binding; strength is not graded here.

Protein sequences, listed by entry. Tags and fused reporters are not part of them.
UniProt Q9H2D6: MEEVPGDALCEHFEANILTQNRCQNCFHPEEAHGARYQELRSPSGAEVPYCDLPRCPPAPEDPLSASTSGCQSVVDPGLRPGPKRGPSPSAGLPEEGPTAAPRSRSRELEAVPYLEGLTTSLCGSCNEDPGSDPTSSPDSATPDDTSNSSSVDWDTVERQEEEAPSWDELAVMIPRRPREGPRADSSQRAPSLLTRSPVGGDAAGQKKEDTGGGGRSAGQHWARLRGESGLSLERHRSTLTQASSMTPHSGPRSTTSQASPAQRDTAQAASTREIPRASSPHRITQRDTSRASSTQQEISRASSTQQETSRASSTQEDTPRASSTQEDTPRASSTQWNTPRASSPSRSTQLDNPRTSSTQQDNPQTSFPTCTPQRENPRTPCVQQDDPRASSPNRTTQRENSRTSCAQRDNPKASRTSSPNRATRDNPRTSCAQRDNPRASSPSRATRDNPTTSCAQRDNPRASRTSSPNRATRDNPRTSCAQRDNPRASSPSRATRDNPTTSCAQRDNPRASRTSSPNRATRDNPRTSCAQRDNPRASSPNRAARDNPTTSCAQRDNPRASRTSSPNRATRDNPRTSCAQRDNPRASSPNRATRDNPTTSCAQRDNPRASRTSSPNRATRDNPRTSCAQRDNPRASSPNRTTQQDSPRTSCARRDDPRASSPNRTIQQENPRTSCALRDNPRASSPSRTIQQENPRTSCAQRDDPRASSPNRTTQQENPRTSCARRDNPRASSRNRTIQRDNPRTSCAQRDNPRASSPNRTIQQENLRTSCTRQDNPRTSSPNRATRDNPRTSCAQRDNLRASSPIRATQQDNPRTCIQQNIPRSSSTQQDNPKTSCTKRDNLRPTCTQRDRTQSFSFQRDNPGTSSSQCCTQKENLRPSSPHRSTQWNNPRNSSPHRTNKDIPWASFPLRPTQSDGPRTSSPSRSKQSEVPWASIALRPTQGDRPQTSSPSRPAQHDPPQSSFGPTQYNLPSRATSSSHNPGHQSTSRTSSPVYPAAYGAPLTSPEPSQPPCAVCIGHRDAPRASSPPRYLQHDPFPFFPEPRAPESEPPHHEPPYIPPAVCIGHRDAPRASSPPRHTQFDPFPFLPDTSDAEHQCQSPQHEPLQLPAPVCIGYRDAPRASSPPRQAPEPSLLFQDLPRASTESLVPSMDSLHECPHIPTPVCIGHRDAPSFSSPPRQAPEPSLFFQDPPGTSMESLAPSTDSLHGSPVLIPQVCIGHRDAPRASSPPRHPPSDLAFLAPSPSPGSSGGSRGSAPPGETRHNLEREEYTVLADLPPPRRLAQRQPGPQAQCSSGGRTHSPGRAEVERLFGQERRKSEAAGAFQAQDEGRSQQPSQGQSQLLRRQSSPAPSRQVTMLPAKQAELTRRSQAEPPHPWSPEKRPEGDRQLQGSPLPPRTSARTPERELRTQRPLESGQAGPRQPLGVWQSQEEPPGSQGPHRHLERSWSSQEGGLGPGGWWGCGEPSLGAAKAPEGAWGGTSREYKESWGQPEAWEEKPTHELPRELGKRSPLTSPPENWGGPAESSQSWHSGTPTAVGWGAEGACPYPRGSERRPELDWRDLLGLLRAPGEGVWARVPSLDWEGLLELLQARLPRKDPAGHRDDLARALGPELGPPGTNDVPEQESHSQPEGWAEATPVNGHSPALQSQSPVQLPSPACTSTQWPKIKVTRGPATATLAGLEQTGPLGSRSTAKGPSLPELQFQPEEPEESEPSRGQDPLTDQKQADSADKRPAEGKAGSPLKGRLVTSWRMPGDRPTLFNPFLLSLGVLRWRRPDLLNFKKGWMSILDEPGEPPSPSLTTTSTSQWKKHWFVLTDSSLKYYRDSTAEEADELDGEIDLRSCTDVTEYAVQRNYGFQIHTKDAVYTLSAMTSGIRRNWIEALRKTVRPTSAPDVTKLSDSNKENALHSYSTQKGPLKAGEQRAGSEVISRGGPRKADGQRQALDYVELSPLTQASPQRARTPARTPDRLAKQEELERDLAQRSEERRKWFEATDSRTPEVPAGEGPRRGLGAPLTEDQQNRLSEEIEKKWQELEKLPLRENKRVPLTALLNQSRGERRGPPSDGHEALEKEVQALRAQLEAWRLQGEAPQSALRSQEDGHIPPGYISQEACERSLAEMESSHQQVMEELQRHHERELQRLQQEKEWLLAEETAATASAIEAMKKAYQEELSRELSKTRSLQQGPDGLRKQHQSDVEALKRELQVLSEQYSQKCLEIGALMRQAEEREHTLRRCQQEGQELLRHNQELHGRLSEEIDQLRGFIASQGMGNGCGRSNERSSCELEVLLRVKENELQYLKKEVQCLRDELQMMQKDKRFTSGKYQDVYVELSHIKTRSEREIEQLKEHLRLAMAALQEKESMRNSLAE

T1: Huntingtin-interacting protein 1 (human) (human (endogenous in RA FLS)) (UniProt O00291)
T1 sequence: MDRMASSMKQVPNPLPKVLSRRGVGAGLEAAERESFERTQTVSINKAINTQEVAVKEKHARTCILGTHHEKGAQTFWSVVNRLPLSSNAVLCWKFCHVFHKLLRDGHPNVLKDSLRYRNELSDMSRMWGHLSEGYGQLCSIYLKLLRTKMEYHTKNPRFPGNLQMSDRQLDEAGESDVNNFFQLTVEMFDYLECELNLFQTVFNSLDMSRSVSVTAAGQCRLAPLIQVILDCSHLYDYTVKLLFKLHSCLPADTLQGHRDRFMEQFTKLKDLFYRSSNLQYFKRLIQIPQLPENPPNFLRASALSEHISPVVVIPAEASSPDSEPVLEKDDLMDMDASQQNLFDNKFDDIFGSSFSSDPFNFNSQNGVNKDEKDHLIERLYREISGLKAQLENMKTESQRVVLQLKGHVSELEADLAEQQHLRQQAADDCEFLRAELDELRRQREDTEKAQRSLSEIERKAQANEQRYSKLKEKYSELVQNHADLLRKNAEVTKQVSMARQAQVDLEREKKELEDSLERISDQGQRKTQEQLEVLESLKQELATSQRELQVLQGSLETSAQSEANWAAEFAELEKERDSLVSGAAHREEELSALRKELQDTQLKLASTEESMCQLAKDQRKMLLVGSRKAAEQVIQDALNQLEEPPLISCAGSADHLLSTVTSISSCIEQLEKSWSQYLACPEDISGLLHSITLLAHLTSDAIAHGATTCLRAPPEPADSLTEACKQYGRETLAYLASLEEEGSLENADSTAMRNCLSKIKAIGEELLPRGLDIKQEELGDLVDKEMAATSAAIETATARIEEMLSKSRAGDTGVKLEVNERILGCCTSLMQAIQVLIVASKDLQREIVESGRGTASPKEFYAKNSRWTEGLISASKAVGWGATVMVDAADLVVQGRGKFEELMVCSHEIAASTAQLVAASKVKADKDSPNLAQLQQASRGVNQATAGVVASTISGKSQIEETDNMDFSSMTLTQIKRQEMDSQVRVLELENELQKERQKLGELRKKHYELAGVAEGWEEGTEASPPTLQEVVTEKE


Target: T1, Huntingtin-interacting protein 1 (human) (human (endogenous in RA FLS))
Experiment: co-IP; lysates of human RA FLS cell lines cultured in serum-free media, media with FBS or media with PDGF 100 ng/mL for 24 h; immunoprecipitation with anti-HIP1 antibody, Western blot with protein-specific antibodies

binding	Molecule
binds	TRIO and F-actin binding protein (human) (from UniProt Q9H2D6 1-2365)
binds	14-3-3 protein eta (human) (protein, UniProt Q04917 1-246) MGDREQLLQRARLAEQAERYDDMASAMKAVTELNEPLSNEDRNLLSVAYKNVVGARRSSWRVISSIEQKTMADGNEKKLEKVKAYREKIEKELETVCNDVLSLLDKFLIKNCNDFQYESKVFYLKMKGDYYRYLAEVASGEKKNSVVEASEAAYKEAFEISKEQMQPTHPIRLGLALNFSVFYYEIQNAPEQACLLAKQAFDDAIAELDTLNEDSYKDSTLIMQLLRDNLTLWTSDQQDEEAGEGN
binds	Kinesin-like protein KIF1C (human) (protein, UniProt O43896 1-1103) MAGASVKVAVRVRPFNARETSQDAKCVVSMQGNTTSIINPKQSKDAPKSFTFDYSYWSHTSTEDPQFASQQQVYRDIGEEMLLHAFEGYNVCIFAYGQTGAGKSYTMMGRQEPGQQGIVPQLCEDLFSRVSENQSAQLSYSVEVSYMEIYCERVRDLLNPKSRGSLRVREHPILGPYVQDLSKLAVTSYADIADLMDCGNKARTVAATNMNETSSRSHAVFTIVFTQRCHDQLTGLDSEKVSKISLVDLAGSERADSSGARGMRLKEGANINKSLTTLGKVISALADMQSKKRKSDFIPYRDSVLTWLLKENLGGNSRTAMIAALSPADINYEETLSTLRYADRTKQIRCNAIINEDPNARLIRELQEEVARLRELLMAQGLSASALEGLKTEEGSVRGALPAVSSPPAPVSPSSPTTHNGELEPSFSPNTESQIGPEEAMERLQETEKIIAELNETWEEKLRKTEALRMEREALLAEMGVAVREDGGTVGVFSPKKTPHLVNLNEDPLMSECLLYHIKDGVTRVGQVDMDIKLTGQFIREQHCLFRSIPQPDGEVVVTLEPCEGAETYVNGKLVTEPLVLKSGNRIVMGKNHVFRFNHPEQARLERERGVPPPPGPPSEPVDWNFAQKELLEQQGIDIKLEMEKRLQDLENQYRKEKEEADLLLEQQRLYADSDSGDDSDKRSCEESWRLISSLREQLPPTTVQTIVKRCGLPSSGKRRAPRRVYQIPQRRRLQGKDPRWATMADLKMQAVKEICYEVALADFRHGRAEIEALAALKMRELCRTYGKPDGPGDAWRAVARDVWDTVGEEEGGGAGSGGGSEEGARGAEVEDLRAHIDKLTGILQEVKLQNSSKDRELQALRDRMLRMERVIPLAQDHEDENEEGGEVPWAPPEGSEAAEEAAPSDRMPSARPPSPPLSSWERVSRLMEEDPAFRRGRLRWLKQEQLRLQGLQGSGGRGGGLRRPPARFVPPHDCKLRFPFKSNPQHRESWPGMGSGEAPTPLQPPEEVTPHPATPARRPPSPRRSHHPRRNSLDGGGRSRGAGSAQPEPQHFQPKKHNSYPQPPQPYPAQRPPGPRYPPYTTPPRMRRQRSAPDLKESGAAV
